Test [1] has as its target AhcyL1, epitope-tagged, overexpressed in S2 cells (Drosophila) (UniProt Q9VZX9). Description: co-IP.
Test [2] addresses T1, S-adenosylhomocysteinase (Ahcy), epitope-tagged, overexpressed in S2 cells (Drosophila) (UniProt Q27580).
T1 sequence: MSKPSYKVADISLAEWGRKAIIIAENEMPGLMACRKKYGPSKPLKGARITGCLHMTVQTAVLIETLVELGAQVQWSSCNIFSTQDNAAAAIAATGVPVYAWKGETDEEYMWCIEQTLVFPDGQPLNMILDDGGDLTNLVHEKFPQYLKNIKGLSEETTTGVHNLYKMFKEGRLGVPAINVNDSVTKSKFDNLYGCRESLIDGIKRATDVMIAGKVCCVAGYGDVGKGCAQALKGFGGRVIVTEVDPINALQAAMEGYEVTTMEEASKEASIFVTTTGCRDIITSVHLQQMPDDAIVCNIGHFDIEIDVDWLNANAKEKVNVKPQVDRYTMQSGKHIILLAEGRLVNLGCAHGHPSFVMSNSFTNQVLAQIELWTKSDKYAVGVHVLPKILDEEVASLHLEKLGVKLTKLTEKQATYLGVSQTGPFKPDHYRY
Description: co-IP.

The chains behind the UniProt entries cited, without tags or fusion partners.
UniProt Q9VZX9: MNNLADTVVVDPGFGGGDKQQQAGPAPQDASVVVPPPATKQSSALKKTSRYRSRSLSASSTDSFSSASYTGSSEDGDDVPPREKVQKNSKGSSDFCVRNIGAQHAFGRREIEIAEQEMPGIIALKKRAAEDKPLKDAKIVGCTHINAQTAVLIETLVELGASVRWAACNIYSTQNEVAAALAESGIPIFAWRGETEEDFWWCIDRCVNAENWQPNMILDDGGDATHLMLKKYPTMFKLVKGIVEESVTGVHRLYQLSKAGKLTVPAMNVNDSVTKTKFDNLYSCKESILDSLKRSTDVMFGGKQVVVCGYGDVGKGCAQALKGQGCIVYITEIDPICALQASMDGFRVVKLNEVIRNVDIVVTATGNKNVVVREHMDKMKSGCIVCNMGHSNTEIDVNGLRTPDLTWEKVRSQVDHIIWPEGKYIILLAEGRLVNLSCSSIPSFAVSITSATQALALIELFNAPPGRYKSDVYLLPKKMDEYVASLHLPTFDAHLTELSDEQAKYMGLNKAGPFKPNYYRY
UniProt P50245: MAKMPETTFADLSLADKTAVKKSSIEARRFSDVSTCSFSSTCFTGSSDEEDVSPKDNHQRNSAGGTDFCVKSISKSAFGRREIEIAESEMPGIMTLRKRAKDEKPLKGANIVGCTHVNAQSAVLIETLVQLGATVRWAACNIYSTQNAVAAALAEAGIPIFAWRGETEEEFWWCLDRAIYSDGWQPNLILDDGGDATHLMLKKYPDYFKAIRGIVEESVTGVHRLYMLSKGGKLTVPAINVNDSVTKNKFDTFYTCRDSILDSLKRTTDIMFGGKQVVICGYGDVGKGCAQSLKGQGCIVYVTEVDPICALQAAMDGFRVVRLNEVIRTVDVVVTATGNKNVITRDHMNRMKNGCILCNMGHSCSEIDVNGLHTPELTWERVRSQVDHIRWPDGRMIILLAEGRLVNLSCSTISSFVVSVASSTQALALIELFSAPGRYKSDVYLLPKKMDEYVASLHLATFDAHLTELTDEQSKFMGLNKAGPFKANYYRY

Test [3] addresses T2, Ahcy, yeast two-hybrid fusion (Drosophila) (UniProt Q27580).
T2 sequence: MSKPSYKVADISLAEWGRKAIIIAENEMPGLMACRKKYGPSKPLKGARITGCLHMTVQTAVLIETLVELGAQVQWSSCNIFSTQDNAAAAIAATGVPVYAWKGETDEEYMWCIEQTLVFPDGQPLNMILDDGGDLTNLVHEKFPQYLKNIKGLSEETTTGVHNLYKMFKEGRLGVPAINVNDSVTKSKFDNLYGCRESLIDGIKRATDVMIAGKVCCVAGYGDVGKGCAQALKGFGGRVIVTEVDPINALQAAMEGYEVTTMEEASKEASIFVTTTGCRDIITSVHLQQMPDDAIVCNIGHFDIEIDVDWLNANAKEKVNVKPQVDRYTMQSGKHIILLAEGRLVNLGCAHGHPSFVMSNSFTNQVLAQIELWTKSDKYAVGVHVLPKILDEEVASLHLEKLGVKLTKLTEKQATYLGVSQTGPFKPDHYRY
The test is described as follows: two-hybrid.

The target in test [4] is AhcyL1, yeast two-hybrid fusion (Drosophila) (UniProt Q9VZX9). The test is described as follows: two-hybrid.

Results are given in words; binding and its absence hold for the method and conditions named. For part of these data: In cells and extracts the contact can be indirect. Some binding calls cover weakened binding; strength is not graded here. For part of these data: Sequences can lack the tags named with a protein.

On to “AhcyL1, epitope-tagged, overexpressed in S2 cells (from UniProt Q9VZX9 1-521)”, for which the values for the binding entry in test [1] and in test [2] were “binds” and “no binding”, respectively. Take “AhcyL2, epitope-tagged, overexpressed in S2 cells (from UniProt P50245 1-492)”: the binding result in test [2] is recorded as “no binding”. In the case of “AhcyL2, yeast two-hybrid fusion (from UniProt P50245 1-492)”, the binding result in test [3] and in test [4] was “no binding” each time. With “AhcyL1, yeast two-hybrid fusion (from UniProt Q9VZX9 1-521)”, the binding result in test [3] is reported as “no binding”; in test [4] it was “binds”.

B1: S-adenosylhomocysteinase (Ahcy), epitope-tagged, overexpressed in S2 cells (enzyme, UniProt Q27580 1-432)
chain: MSKPSYKVADISLAEWGRKAIIIAENEMPGLMACRKKYGPSKPLKGARITGCLHMTVQTAVLIETLVELGAQVQWSSCNIFSTQDNAAAAIAATGVPVYAWKGETDEEYMWCIEQTLVFPDGQPLNMILDDGGDLTNLVHEKFPQYLKNIKGLSEETTTGVHNLYKMFKEGRLGVPAINVNDSVTKSKFDNLYGCRESLIDGIKRATDVMIAGKVCCVAGYGDVGKGCAQALKGFGGRVIVTEVDPINALQAAMEGYEVTTMEEASKEASIFVTTTGCRDIITSVHLQQMPDDAIVCNIGHFDIEIDVDWLNANAKEKVNVKPQVDRYTMQSGKHIILLAEGRLVNLGCAHGHPSFVMSNSFTNQVLAQIELWTKSDKYAVGVHVLPKILDEEVASLHLEKLGVKLTKLTEKQATYLGVSQTGPFKPDHYRY
As for B1, the binding result in test [2] is listed as “binds”.

B2: Ahcy, yeast two-hybrid fusion (enzyme, UniProt Q27580 1-432)
chain: MSKPSYKVADISLAEWGRKAIIIAENEMPGLMACRKKYGPSKPLKGARITGCLHMTVQTAVLIETLVELGAQVQWSSCNIFSTQDNAAAAIAATGVPVYAWKGETDEEYMWCIEQTLVFPDGQPLNMILDDGGDLTNLVHEKFPQYLKNIKGLSEETTTGVHNLYKMFKEGRLGVPAINVNDSVTKSKFDNLYGCRESLIDGIKRATDVMIAGKVCCVAGYGDVGKGCAQALKGFGGRVIVTEVDPINALQAAMEGYEVTTMEEASKEASIFVTTTGCRDIITSVHLQQMPDDAIVCNIGHFDIEIDVDWLNANAKEKVNVKPQVDRYTMQSGKHIILLAEGRLVNLGCAHGHPSFVMSNSFTNQVLAQIELWTKSDKYAVGVHVLPKILDEEVASLHLEKLGVKLTKLTEKQATYLGVSQTGPFKPDHYRY
On to B2, for which the binding result in test [3] is given as “binds”.

(Values after publication doi:10.1101/2025.04.25.650714.)
